Reference: publication PMC10163288
Some of the results follow.

B1: il10ra_site1_normal_mot_HHH_b1_05937_af2_000000262_0001_20_37_H_._HHH_b2_02616_0001_0000500050_0000001_0 (protein)
chain: SSSSDEEERLEQLLEELERLLEEGDRERFLRVAIEILRLAFELGDEEALKIVWELVQKLNSSSSS
B2: il10ra_site1_normal_mot_HHH_b1_01879_000000050_0001_1_18_H_._HHH_b1_07598_af2_0001_0000200009_0000001_0_af2pred_0001 (protein)
chain: SSSSSDEEERFLRLLIEAFQLLENGNPEEAEKVLREAEELAEELNDPAAKQAVEVLLSLLSSSSS
B3: il10ra_site1_sap_17_mot_HHH_b2_04057_000000065_0001_1_20_H_._HHH_b2_05897_0001_0000400029_0000002_0_0001_af2pred_0001 (protein)
chain: SSSSSEEIYKAIRLFALLLRLLERGDEEKVEEVEEELEELAEKYNDRTARAALKLFRERGSSSSS
B4: il10ra_site1_normal_mot_HHH_b2_00475_000000107_0001_44_57_H_._HHH_b2_01109_0001_0000200013_0000001_0 (protein)
chain: SSSSDTREEVVQLLLRAVRLKAEGNPEEAREVLEEAEKVAREGNDEELERYLEIAKHFVNSSSSS
B5: il10ra_site1_normal_mot_HHH_b2_02537_000000065_0001_1_20_H_._HHH_b1_01288_0001_0000500057_0000001_0 (protein)
chain: SSSSSTDEEFEEVKRLIKLLAEARSEEERREIEEEMEELAKHVSEIFRFALEHALRLQRSSSSSS
B6: il10ra_site1_sap_22_mot_HHH_b1_01513_af2_000000021_0001_1_16_H_._HHH_b1_03950_0001_0001000030_0000001_0_0001 (protein)
chain: SSSSDANERIWELLRRALELLAEGDPEEARELIEEAEELAEEANSRVLRKVIEHLLRAVKSSSSS
B7: il10ra_site1_normal_mot_HHH_b1_03333_000000091_0001_1_17_H_._HHH_b1_06365_0001_0000200014_0000001_0 (protein)
chain: SSSSSLYERVKKVIEELIELFKRGNPEEARELAEEMLREVEEAGNTAALFALRHALRLINSSSSS
B8: il10ra_site1_sap_14_mot_HHH_b2_00345_af2_000000013_0001_42_56_H_._HHH_b2_02124_0002_0000500018_0000001_0_0001 (protein)
chain: SSSSDEEVEELEEQIRELLEEGDTERALELIQEMLRVAFRLRDQEAIQAAWELVKSVLENSSSSS
B9: il10ra_site1_normal_mot_513c16ae44941e68898e0f7c259e5a28_0001_1_000000056_0001_35_50_H_._HHH_eva_0144_af2_0001_0000100003_0000002_0 (protein)
chain: SSDPRQIRDLVRAIERLVRQGILDPHFAVRALEALEEDAREVGDEELEELVKEVLEEIEKLISSS
B10: il10ra_site1_sap_19_mot_HHH_b1_00992_000000182_0001_23_40_H_._HHH_b1_02574_0001_0000200023_0000001_0_0001 (protein)
chain: SSSSDEEEELVRAALRLAEQAYENGDPEAAKRLLWAAEFLAREIGDEELEELVERVEEKISSSSS
B11: il10ra_site1_normal_mot_HHH_b1_04065_000000255_0001_41_56_H_._HHH_b2_00788_0001_0000600064_0000002_0 (protein)
chain: SSSSSEEVEELLEEAERLAEEGNPHEASEALFEALRRAFELGDPELLRLVDRVAIELYERLSSSS
B12: il10ra_site1_sap_14_mot_HHH_b2_06846_000000142_0001_38_52_H_._HHH_b2_07255_0001_0000100004_0000002_0_0001 (protein)
chain: SSSSSSSSEVEEEVRRLLEEAEENPERANELLAEALRLAYRHNNKELLREIWEVLHELSSSSSSS
B13: il10ra_site1_sap_12_mot_HHH_b2_06228_000000276_0001_1_15_H_._HHH_b1_06652_0001_0000300012_0000001_0_0001 (protein)
chain: SSSSDEEEIEELLKELEEALRRGDHHLFTRILDRVMKLIEELGDEELAEELQRLFHEFLRKSSSS
B14: il10ra_site1_sap_14_mot_HHH_b1_02464_000000069_0001_1_19_H_._HHH_b1_01491_0001_0000400045_0000001_0_0001 (protein)
chain: SSSSSDASQELMELVKRVSELDQRGDEEEAKELLEEIERLAEEKNNWIARAMVELLHRVLSSSSS
B15: il10ra_site1_normal_mot_HHH_b1_05357_000000034_0001_23_39_H_._HHH_b1_00950_0001_0000100002_0000001_0 (protein)
chain: SSSSDVEELLEEAREATEEGDKQLVSHLLIQAYALAHQKNDPELEELVRRVARELVELLASSSSS
B16: il10ra_site1_normal_mot_HHH_b1_03754_af2_000000016_0001_40_56_H_._HHH_b1_01843_0001_0000300022_0000002_0 (protein)
chain: SSSSSSSAEESVRRLLHAARQLDDEEYVRLSLRFAKFLAEQANDEELEREIEELEERLSSSSSSS
B17: il10ra_site1_sap_27_mot_HHH_b1_03754_af2_000000016_0001_40_56_H_._HHH_b2_03275_0001_0000100008_0000001_0_0001 (protein)
chain: SSSSSDEEIRERVEELIEELEKVSSDEAYELLREAIELAAELNDPELFRLVLEAIREWLHSSSSS
B18: il10ra_site1_normal_mot_HHH_b1_08477_000000091_0001_40_57_H_._HHH_b2_03987_af2_0002_0000600012_0000001_0 (protein)
chain: SSSSNEAEEAVRRALESAERAYELGDPELVEQALRFAEALAKALNDPELQELVEEVKEELSSSSS
B19: il10ra_site1_normal_mot_HHH_b1_00999_000000080_0001_41_55_H_._HHH_b1_03194_0001_0000400033_0000002_0 (protein)
chain: SSSSSSDVEELLEELEELLEEGNKEEALRILQEALRHAFRNSDPELLKRLWEFARRLGSSSSSSS
B20: il10ra_site1_sap_26_mot_HHH_b2_05323_000000159_0001_1_18_H_._HHH_b1_03540_af2_0001_0000800033_0000001_0_0001 (protein)
chain: SSSSSELEEEVRKLLEEAEELAERGDEKYAKVLQEAVHLVMHNGNKELLQLIWRVVKELASSSSS
B21: il10ra_site1_normal_mot_HHH_b1_05357_000000034_0001_23_39_H_._HHH_b2_05651_0002_0000100005_0000001_0_af2pred_0001 (protein)
chain: SSSSDKELEEEVEELLEEAEKSTDRHEISYLLIRAFALANRVNDPELRKEVERVAQELSNSSSSS
B22: il10ra_site1_normal_mot_HHH_b1_05254_000000006_0001_1_19_H_._HHH_b2_04238_0001_0000600040_0000001_0 (protein)
chain: SSSSSEEVEEEVERLLEEARKIEDPDEFYRLLREAIELAAENNDPELVRLVIEAFREWLHSSSSS
B23: il10ra_site1_normal_mot_HHH_b2_00479_000000091_0001_1_12_H_._HHH_b2_03846_0001_0000400033_0000001_0_af2pred_0001 (protein)
chain: SSSSSSIHELLRLAREILELREEGDEEEAERLIEELERLAKELNDPLAEFIARALRRALESSSSS
B24: il10ra_site1_normal_mot_HHH_b1_05098_000000185_0001_1_18_H_._HHH_b1_08206_0001_0000200007_0000002_0 (protein)
chain: SSSSDKRERALELVLEAFRLLLRGNPEEAEELLEEAEKLAEEINNEQLLRVIQQLLETVRSSSSS

Target: il10ra, Q13651
Assay: yeast display titration

Apparent Kd, inactive:
B1 no binding seen, B2 no binding seen, B3 no binding seen, B4 no binding seen, B5 no binding seen, B6 no binding seen, B7 no binding seen, B8 no binding seen, B9 no binding seen, B10 no binding seen, B11 no binding seen, B12 no binding seen, B13 no binding seen, B14 no binding seen, B15 no binding seen, B16 no binding seen, B17 no binding seen, B18 no binding seen, B19 no binding seen, B20 no binding seen, B21 no binding seen, B22 no binding seen, B23 no binding seen, B24 no binding seen
